From PMC6677759 come the findings set out here.

For at least one entry, the source does not settle the construct or the ends of the probe. At least one verdict rests on a figure or table, not on a statement of the authors. Where a protein sequence is shown, tags need not be part of it.

This series addresses T1, NtCRF2 LHRI-VHIID-LHRII (Nicotiana tabacum (cv. Petite Havana SR1)) (UniProt A0A1U7XHE4).
T1 sequence (looked up): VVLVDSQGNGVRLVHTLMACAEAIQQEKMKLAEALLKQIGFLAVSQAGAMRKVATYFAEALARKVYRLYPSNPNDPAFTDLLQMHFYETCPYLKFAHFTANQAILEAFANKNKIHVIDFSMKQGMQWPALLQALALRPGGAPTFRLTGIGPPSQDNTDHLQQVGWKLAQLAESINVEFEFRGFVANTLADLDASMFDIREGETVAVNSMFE
Put plainly: EMSA. Conditions: EMSA: 20 ul, 1x LightShift binding buffer, 1 ug poly(dI-dC), 2.5% glycerol, 0.05% NP-40, 50 mM KCl, 5 mM MgCl2, 20 fmol probe, 1-4 ug protein, 20 min at 25 C; recombinant protein; residues 207-417; label: 5' biotin. On the technique in general: Mobility shift assays separate free from complexed probe on a gel.

“ACTATAATTCTTTGCTTACTCTCTAAATTTCCGGCCTTGATTTTGGGAAGTGTTT (double strand) [M3]”: the binding result was “binds”.
